The subject of the experiment is HEK293A TEAD-LUC reporter. Put plainly: TEAD-luciferase reporter activity (YAP activation), robust Z score vs plate; higher = stronger YAP/TEAD activation. To be noted: 24 h. Background: A reporter such as luciferase makes a cellular process visible.

Structures can show the parent of a compound that is named as a salt. This is one part of the list. Single values are uncertain here, since repeats match poorly.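 Human kidney-derived cells stably carry a construct in which eight TEAD-binding elements drive luciferase, measured by luminescence in a drug-repurposing library screen. A hit is any compound whose signal exceeds the plate mean by more than five robust Z scores.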

Take `OC(CCN1CCCC1)(c1ccccc1)C1CCCCC1` (stereo not given) [Procyclidine hydrochloride]: the TEAD-luciferase reporter activity (compound concentration: 2 uM) was inactive: -0.787.
As for `OC(CCN1CCCC1)(c1ccccc1)C1CCCCC1` (stereo not given), the TEAD-luciferase reporter activity reads like this: (compound concentration: 200 nM) inactive: -1.27; (compound concentration: 10 uM) inactive: 0.364.
As to `COc1c(O[C@@H]2O[C@H](CO)[C@@H](O)[C@H](O)[C@H]2O)cc2c(c1OC)-c1ccc(SC)c(=O)cc1[C@@H](NC(C)=O)CC2` [thiocolchicoside], the TEAD-luciferase reporter activity (compound concentration: 200 nM) was inactive: -2.54, the TEAD-luciferase reporter activity (compound concentration: 2 uM) was inactive: 0.788 and the TEAD-luciferase reporter activity (compound concentration: 10 uM) is inactive: -2.13.
`CS(=O)(=O)Nc1ccc([N+](=O)[O-])cc1OC1CCCCC1`: the TEAD-luciferase reporter activity reads like this: (compound concentration: 200 nM) inactive: 0.876; (compound concentration: 2 uM) inactive: 0.339; (compound concentration: 10 uM) inactive: 0.878.
For `COc1cccc2c1C(=O)c1c(O)c3c(c(O)c1C2=O)CC(O)(C(=O)CO)CC3OC1CC(N)C(O)C(C)O1` (stereo not given) [Doxorubicin], the TEAD-luciferase reporter activity was inactive: -0.638 (compound concentration: 200 nM), inactive: 0.499 (compound concentration: 2 uM) and inactive: -0.469 (compound concentration: 10 uM).
In the case of `N#CC1CCN(C(=O)C2CN(c3ccc(F)cc3)C(=O)N2)CC1` (stereo not given), the TEAD-luciferase reporter activity is, setting by setting: (compound concentration: 200 nM) inactive: -2; (compound concentration: 10 uM) inactive: 0.71.
As for `CCCCCC/C=C\CCCCCCCCCC1=CC(=O)C=C(OC)C1=O`, the TEAD-luciferase reporter activity (compound concentration: 200 nM) is inactive: -1.12, the TEAD-luciferase reporter activity (compound concentration: 2 uM) is inactive: 0.161 and the TEAD-luciferase reporter activity (compound concentration: 10 uM) was inactive: -0.234.
The matching figures for `CCc1nn(C2CCCC2)c2c1CCn1c(-c3cccs3)nnc1-2`: inactive: -0.708, inactive: -0.91 and inactive: 0.506.
Turning to `COc1cc(C(=O)OC(COCCC23C[C@H]4C[C@@H](C2)C[C@@H](C3)C4)CN2CCOCC2)cc(OC)c1OC` (stereo not given in full), the TEAD-luciferase reporter activity reads like this: (compound concentration: 200 nM) inactive: -0.739; (compound concentration: 2 uM) inactive: -1.17; (compound concentration: 10 uM) inactive: 4.17.
Regarding `CC(C)(C)c1cnc(CSc2cnc(NC(=O)C3CCNCC3)s2)o1`, the TEAD-luciferase reporter activity by setting is: (compound concentration: 200 nM) inactive: 0.174; (compound concentration: 2 uM) inactive: -2.81; (compound concentration: 10 uM) inactive: 0.978.
Regarding `Cc1ccc(C(=O)c2ccc(CC(=O)O)n2C)cc1` [tolmetin, Gilead], the TEAD-luciferase reporter activity was inactive: -1.22 (compound concentration: 200 nM), inactive: -2.52 (compound concentration: 2 uM) and inactive: -1.59 (compound concentration: 10 uM).
For `O=c1c2ccccc2ncn1CCOCCOc1ccccc1F`, the TEAD-luciferase reporter activity is inactive: -0.454 (compound concentration: 200 nM), inactive: -1.01 (compound concentration: 2 uM) and inactive: -1.06 (compound concentration: 10 uM).
As to `C=C[C@]1(C)C[C@@H](OC(=O)CSC(C)(C)CNC(=O)[C@H](N)C(C)C)C2(C)[C@H](C)CCC3(CCC(=O)[C@H]32)[C@@H](C)[C@@H]1O` (stereo not given in full) [Valnemulin (Hydrochloride)], the TEAD-luciferase reporter activity is, setting by setting: (compound concentration: 200 nM) inactive: 0.935; (compound concentration: 2 uM) inactive: -0.525; (compound concentration: 10 uM) inactive: -0.765.
Consider `C#CCN(Cc1ccc2nc(N)[nH]c(=O)c2c1)c1ccc(C(=O)N[C@@H](CCC(=O)O)C(=O)O)cc1`, for which the TEAD-luciferase reporter activity was inactive: 0.247 (compound concentration: 200 nM), inactive: -0.0592 (compound concentration: 2 uM) and inactive: -0.957 (compound concentration: 10 uM).
With `OCC1OC(n2ncc3c(O)ncnc32)C(O)C1O` (stereo not given) [Allopurinol riboside], the TEAD-luciferase reporter activity runs as follows: (compound concentration: 200 nM) inactive: -0.466; (compound concentration: 2 uM) inactive: -0.673; (compound concentration: 10 uM) inactive: 0.884.
With `O=C(C1CCCC1)N1CCN(c2nc3ncccc3o2)CC1`, the TEAD-luciferase reporter activity runs as follows: (compound concentration: 200 nM) inactive: -1.13; (compound concentration: 10 uM) inactive: 2.76.
Regarding `CC[C@H]1OC(=O)[C@H](C)[C@@H](O)[C@H](C)[C@@H](O[C@@H]2O[C@H](C)CC(N(C)C(C)=O)[C@H]2O)[C@](C)(O)C[C@@H](C)[C@H](O)[C@H](C)[C@@H](O)[C@]1(C)O` (stereo not given in full), the TEAD-luciferase reporter activity by setting is: (compound concentration: 200 nM) inactive: -0.287; (compound concentration: 2 uM) inactive: -0.802; (compound concentration: 10 uM) inactive: 0.382.
The corresponding values for `O=C(O)[C@@H](S)[C@@H](S)C(=O)O` [succimer] are inactive: -1.02, inactive: 2.92 and inactive: -0.141.
The matching figures for `O=C(NC1CCNCC1)[C@@H]1CC[C@@H]2CN1C(=O)N2OS(=O)(=O)O` [Relebactam]: inactive: -0.38, inactive: 1.96 and inactive: 1.76.
As to `COc1ccc(CN2CCC(N3CCCC3=O)CC2)cc1`, the TEAD-luciferase reporter activity runs as follows: (compound concentration: 200 nM) inactive: -1.84; (compound concentration: 10 uM) inactive: 1.28.
In the case of `CCOP(=O)(OCC)C(=Cc1cc(C(C)(C)C)c(O)c(C(C)(C)C)c1)P(=O)(OCC)OCC`, the TEAD-luciferase reporter activity by setting is: (compound concentration: 200 nM) inactive: 0.169; (compound concentration: 2 uM) inactive: -0.422; (compound concentration: 10 uM) inactive: 0.347.
As for `CCn1ncc2c3c(NCc4ccc(OC)c(Cl)c4)nnc(-n4cnc(C(=O)NC)c4)c3cnc21`, the TEAD-luciferase reporter activity runs as follows: (compound concentration: 200 nM) inactive: -1.76; (compound concentration: 2 uM) inactive: -2.37; (compound concentration: 10 uM) inactive: -0.49.
As to `CNc1nc(C(C)c2ccc(-c3ccccc3)c(F)c2)cs1` (stereo not given), the TEAD-luciferase reporter activity reads like this: (compound concentration: 200 nM) inactive: -1.21; (compound concentration: 2 uM) inactive: 1.81; (compound concentration: 10 uM) inactive: -0.416.
On to `CN(C)CCCN1c2ccccc2C(c2ccccc2)=Nc2cccnc21` [Tampramine], for which the TEAD-luciferase reporter activity runs as follows: (compound concentration: 200 nM) inactive: -0.704; (compound concentration: 2 uM) inactive: 0.187; (compound concentration: 10 uM) inactive: 0.56.
In the case of `COc1ccc(C2CNC(=O)NC2)cc1O[C@H]1C[C@@H]2CC[C@H]1C2` [Atizoram], the TEAD-luciferase reporter activity runs as follows: (compound concentration: 200 nM) inactive: -3.24; (compound concentration: 2 uM) inactive: 0.469; (compound concentration: 10 uM) inactive: -0.333.
Consider `CCOc1ccc2nc3cc(N)ccc3c(N)c2c1`, for which the TEAD-luciferase reporter activity reads like this: (compound concentration: 200 nM) inactive: -1.61; (compound concentration: 2 uM) inactive: -0.637; (compound concentration: 10 uM) inactive: -0.088.
As for `COc1cc(-n2cnc3cc(-c4ccc(Cl)cc4)sc3c2=O)ccc1N1CC[C@@H](OC(=O)[C@@H](N)C(C)C)C1`, the TEAD-luciferase reporter activity (compound concentration: 200 nM) is inactive: 0.941, the TEAD-luciferase reporter activity (compound concentration: 2 uM) is inactive: -0.774 and the TEAD-luciferase reporter activity (compound concentration: 10 uM) was inactive: -0.698.

(Values after the supplement of paper PMC10735217.)
